The values below come from PubChem BioAssay AID2685 (National Center for Advancing Translational Sciences (NCATS), 2010).

A word on the AC50: it is the concentration at which the activity in the assay is half-maximal.

The other results are listed elsewhere or left out. These are further read-outs of the screen, such as a control signal, another cell line or another target. No call is given for them. Compounds called inactive in the main read-out are mostly missing here. The note in brackets gives the kind of curve behind each potency; many fits are weak.

The experiment is described as follows: qHTS Assay for Lipid Storage Modulators in Drosophila S3 Cells.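 For cell number change: cells counted by Cell Tracker Red CMTPX staining in the red channel.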 The following applies: BODIPY lipid droplet fluorescence, 18-24 h; for cell number change: measured here: cell count max response, cells fed with added oleic acid. In outline: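 Laser-scanning cytometry quantifies lipid droplet accumulation (500–530 nm total intensity; droplet/cell object ratio) in oleic acid-fed (400 uM added) Drosophila S3 cells treated with a concentration series. 20 uM Triacsin C defined 100% inhibition.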
(In qHTS, concentration-response curves come from the screen itself.)

Setting [1] is: measured here: lipid fluorescence (Fed channel) AC50, cells fed with added oleic acid.
Where [2] appears, read: measured here: cell number channel AC50, cells fed with added oleic acid.

`Cc1ccc(C)c(NC(=O)N2CCCCCC2)c1`: the AC50 under setting [1] is 6.51 µM [rising, single point].

On to `CN(NC(=O)c1ccccc1)c1ncc(C(F)(F)F)cc1Cl`, for which the cell number change is -35.3%. Further, the half-maximal activity concentration (AC50) under setting [2] is 2.91 µM [falling, full curve]. As for `O=S(=O)(c1ccc(-c2csc(Nc3ccc(F)cc3)n2)cc1)N1CCCC1`, under setting [2], the AC50 was 2.59 µM [rising, single point]. Turning to `COc1cc(C2C(C#N)=C(N)OC3=C2C(=O)CCC3)cc2c1OCO2` (stereo not given), the cell number change stood at 29.2%. Further, the AC50 under setting [1] was 3.66 µM [rising, partial curve, poor fit]. On to `O=S(=O)(c1cccc2cccnc12)N1CCc2ccccc21`, for which the AC50 runs as follows: under setting [2], 1.84 µM [falling, partial curve]; under setting [1], 4.11 µM [rising, single point]. With `O=C(c1ccccc1)C(O)c1ccccc1` (stereo not given), the cell number change stood at 27%. Further, the AC50 under setting [1] is 5.8 µM [rising, partial curve, poor fit].

On to `O=C(O)CC(Cc1ccc(Br)cc1)C(=O)Nc1ccccc1` (stereo not given), for which the cell number change is 10.9%. Moreover, the AC50 under setting [1] was 23.1 µM [rising, partial curve]. In the case of `CN1CCN(Cc2nnc(-c3ccccc3)o2)CC1`, the AC50 under setting [1] is 29.1 µM [falling, single point]. Regarding `COc1cc(C)c(S(=O)(=O)N2CCN=C2c2ccccc2)cc1C`, the concentration at half-maximal activity (AC50) under setting [2] is 5.17 µM [falling, single point]. On to `NC(=O)C1CCN(C(=O)c2ccc(C(F)(F)F)cc2)CC1`, for which the cell number change was found to be 4.24%. For the same molecule, the AC50 under setting [1] was 0.00411 µM [rising, full curve, poor fit]. Regarding `CN(NC(=O)c1ccccc1Cl)c1ncc(C(F)(F)F)cc1Cl`, the cell number change turned out to be 33%. Besides, under setting [2], the AC50 was 0.82 µM [falling, single point]. Under setting [1], the AC50 was 0.58 µM [falling, single point]. Consider `COc1ccc(N2C(=NC(=O)C3CCCCC3)SC3CS(=O)(=O)CC32)cc1OC` (stereo not given), for which the cell number change was 0.382%. `Clc1ccc(OCc2nn3c(-c4ccco4)nnc3s2)cc1`: the concentration at half-maximal activity (AC50) under setting [1] is 14.6 µM [falling, partial curve, poor fit].

With `Cc1cc(CNC(=O)C(C)n2nc(C)c([N+](=O)[O-])c2C)c2ccccc2n1` (stereo not given), the cell number change came to 18.8%.

For `CCN(c1ccccc1)S(=O)(=O)c1ccc(Cl)c(NC(=O)COC(=O)c2cc(O)c3ccccc3c2O)c1`, the cell number change is -15.5%. Besides, the AC50 under setting [1] was 10.3 µM [falling, single point]. Consider `O=C(O)CCC(=O)NC1CCCCC1`, for which the cell number change is -46.7%. Besides, the AC50 under setting [2] was 29.1 µM [falling, single point].

On to `Cc1cc(C)n2nc(C(=O)OCC(=O)N(C)CC(=O)Nc3ccccc3Cl)nc2n1`, for which the cell number change is -9.06%. For the same molecule, the AC50 under setting [1] was 10.3 µM [falling, partial curve, poor fit]. On to `COC(=O)C1=NN(c2ccc(OC)cc2)C2C(=O)N(c3ccccc3OC)C(=O)C12` (stereo not given), for which the cell number change came to 10.9%. In addition, the AC50 under setting [1] was 13 µM [rising, single point].
